Assay results as given in the supplement of paper PMC12823440, “Inhibitors supercharge kinase turnover through native proteolytic circuits” (Nature, 2025).
Structures can show the parent of a compound that is named as a salt. The list shows a part of the results. Hit calls seldom repeat between salt and free forms of one compound.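 Kinases, fused to nanoluciferase, were expressed in K562 cells; luminescence was measured every 4 h from 2 to 18 h as percent of control (DMSO = 100%, positive control = 0%). A time point is decreased if signal falls significantly (2 sigma). Hits were called by the authors by a rule that is not shown; the count of time points alone does not decide it.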

Sequences of proteins named here, by UniProt entry; tags and fusion partners are left off. A change or cut given only in a name is not applied to a line headed by its entry.
UniProt Q15208: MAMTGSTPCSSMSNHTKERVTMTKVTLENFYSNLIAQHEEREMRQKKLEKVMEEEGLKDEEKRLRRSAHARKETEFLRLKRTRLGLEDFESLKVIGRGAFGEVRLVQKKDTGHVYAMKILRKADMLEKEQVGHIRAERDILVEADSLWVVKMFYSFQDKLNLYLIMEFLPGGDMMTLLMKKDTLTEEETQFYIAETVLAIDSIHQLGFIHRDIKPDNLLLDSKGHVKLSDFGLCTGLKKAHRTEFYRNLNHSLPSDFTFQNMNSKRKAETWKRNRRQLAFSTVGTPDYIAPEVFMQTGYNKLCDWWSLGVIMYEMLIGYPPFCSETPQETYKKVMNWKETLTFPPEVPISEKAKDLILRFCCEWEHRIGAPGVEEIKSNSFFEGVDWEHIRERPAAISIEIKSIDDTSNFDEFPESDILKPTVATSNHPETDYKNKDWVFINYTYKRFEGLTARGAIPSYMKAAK
UniProt P42680: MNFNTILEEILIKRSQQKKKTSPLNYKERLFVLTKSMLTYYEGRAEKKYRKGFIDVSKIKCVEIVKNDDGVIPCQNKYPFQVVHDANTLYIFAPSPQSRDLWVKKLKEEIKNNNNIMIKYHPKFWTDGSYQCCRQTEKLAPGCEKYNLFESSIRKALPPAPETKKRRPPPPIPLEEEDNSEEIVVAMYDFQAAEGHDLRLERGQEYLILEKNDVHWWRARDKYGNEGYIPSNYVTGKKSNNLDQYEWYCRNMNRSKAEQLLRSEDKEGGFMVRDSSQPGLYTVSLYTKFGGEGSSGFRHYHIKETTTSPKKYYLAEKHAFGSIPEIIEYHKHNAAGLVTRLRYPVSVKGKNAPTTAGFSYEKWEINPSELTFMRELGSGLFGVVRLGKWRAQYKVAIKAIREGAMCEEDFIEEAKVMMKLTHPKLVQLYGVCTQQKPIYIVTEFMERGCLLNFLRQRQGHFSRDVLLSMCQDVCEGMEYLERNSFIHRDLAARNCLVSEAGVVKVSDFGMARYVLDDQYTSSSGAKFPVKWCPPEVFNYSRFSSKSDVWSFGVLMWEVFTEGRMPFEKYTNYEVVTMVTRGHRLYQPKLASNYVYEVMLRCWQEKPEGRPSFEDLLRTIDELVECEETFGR
UniProt P29597: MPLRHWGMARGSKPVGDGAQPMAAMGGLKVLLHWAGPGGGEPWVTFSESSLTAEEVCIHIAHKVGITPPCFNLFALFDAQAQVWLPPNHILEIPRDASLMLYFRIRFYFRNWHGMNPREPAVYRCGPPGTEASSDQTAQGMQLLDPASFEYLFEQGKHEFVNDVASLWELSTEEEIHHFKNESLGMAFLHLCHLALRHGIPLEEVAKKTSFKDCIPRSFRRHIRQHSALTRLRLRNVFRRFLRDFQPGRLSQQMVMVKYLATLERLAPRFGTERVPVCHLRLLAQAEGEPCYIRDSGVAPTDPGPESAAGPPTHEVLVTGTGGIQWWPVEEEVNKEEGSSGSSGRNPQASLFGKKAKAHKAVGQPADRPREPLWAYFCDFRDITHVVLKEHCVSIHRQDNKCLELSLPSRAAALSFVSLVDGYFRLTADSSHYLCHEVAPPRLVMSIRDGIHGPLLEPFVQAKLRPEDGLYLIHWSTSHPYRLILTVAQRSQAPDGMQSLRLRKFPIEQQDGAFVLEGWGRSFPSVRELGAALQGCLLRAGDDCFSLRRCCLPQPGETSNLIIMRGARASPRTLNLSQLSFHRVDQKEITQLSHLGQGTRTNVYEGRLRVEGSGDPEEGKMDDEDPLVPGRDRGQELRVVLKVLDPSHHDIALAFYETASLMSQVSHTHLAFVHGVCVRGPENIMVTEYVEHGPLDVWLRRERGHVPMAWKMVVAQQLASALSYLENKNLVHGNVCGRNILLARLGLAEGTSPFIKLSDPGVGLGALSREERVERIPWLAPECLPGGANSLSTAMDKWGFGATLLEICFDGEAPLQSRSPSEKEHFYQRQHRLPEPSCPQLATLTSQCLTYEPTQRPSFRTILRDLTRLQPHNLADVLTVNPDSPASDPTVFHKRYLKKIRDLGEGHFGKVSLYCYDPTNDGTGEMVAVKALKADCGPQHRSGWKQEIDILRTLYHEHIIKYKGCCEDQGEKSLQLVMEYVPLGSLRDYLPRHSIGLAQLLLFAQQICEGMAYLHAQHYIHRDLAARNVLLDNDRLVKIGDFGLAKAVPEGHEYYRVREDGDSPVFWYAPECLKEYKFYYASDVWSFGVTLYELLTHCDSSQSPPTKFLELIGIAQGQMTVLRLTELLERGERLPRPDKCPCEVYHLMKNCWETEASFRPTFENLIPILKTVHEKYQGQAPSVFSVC
UniProt Q6PHR2: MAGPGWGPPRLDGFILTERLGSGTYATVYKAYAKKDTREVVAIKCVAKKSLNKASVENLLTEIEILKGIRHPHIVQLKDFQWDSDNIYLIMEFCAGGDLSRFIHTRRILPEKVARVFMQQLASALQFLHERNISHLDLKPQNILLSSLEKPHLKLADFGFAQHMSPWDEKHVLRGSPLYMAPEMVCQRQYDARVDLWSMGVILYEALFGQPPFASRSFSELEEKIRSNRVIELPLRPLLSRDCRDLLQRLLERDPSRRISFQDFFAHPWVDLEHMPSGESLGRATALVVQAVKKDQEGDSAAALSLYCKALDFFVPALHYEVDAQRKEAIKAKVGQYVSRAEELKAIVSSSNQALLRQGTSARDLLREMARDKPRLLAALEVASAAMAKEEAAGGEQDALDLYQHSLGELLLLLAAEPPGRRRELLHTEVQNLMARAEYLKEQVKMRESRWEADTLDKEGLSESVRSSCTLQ
UniProt P07947, whole entry, looked up: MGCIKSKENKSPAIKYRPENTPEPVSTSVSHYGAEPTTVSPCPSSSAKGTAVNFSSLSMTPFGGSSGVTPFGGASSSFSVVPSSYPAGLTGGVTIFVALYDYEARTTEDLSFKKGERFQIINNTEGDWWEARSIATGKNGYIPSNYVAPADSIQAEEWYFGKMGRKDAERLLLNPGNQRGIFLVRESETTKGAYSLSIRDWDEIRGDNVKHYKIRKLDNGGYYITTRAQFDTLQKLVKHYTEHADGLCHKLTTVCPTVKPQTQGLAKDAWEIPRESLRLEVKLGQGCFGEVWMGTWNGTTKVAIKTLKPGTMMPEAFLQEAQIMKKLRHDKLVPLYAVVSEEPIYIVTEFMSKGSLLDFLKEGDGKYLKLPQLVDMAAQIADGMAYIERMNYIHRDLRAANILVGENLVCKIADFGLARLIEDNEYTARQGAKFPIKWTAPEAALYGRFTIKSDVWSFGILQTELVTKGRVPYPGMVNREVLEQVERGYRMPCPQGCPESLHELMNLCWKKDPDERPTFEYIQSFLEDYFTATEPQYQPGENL
UniProt P43403: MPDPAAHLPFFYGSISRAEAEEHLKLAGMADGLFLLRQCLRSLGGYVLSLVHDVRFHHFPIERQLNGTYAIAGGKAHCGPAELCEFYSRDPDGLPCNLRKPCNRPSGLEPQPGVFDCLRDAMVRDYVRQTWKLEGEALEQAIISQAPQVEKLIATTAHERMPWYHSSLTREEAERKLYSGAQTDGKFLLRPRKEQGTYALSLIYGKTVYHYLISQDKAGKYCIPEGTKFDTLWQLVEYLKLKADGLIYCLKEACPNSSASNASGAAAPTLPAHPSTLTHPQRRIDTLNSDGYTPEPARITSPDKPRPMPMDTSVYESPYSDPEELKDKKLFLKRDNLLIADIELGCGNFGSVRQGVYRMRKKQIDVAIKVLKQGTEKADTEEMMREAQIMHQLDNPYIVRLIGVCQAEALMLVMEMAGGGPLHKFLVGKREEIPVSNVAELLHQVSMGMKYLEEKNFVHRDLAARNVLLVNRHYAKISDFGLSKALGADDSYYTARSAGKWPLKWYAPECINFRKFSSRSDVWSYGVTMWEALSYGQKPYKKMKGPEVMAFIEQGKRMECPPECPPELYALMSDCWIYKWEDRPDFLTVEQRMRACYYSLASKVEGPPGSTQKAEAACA
UniProt P00519, whole entry: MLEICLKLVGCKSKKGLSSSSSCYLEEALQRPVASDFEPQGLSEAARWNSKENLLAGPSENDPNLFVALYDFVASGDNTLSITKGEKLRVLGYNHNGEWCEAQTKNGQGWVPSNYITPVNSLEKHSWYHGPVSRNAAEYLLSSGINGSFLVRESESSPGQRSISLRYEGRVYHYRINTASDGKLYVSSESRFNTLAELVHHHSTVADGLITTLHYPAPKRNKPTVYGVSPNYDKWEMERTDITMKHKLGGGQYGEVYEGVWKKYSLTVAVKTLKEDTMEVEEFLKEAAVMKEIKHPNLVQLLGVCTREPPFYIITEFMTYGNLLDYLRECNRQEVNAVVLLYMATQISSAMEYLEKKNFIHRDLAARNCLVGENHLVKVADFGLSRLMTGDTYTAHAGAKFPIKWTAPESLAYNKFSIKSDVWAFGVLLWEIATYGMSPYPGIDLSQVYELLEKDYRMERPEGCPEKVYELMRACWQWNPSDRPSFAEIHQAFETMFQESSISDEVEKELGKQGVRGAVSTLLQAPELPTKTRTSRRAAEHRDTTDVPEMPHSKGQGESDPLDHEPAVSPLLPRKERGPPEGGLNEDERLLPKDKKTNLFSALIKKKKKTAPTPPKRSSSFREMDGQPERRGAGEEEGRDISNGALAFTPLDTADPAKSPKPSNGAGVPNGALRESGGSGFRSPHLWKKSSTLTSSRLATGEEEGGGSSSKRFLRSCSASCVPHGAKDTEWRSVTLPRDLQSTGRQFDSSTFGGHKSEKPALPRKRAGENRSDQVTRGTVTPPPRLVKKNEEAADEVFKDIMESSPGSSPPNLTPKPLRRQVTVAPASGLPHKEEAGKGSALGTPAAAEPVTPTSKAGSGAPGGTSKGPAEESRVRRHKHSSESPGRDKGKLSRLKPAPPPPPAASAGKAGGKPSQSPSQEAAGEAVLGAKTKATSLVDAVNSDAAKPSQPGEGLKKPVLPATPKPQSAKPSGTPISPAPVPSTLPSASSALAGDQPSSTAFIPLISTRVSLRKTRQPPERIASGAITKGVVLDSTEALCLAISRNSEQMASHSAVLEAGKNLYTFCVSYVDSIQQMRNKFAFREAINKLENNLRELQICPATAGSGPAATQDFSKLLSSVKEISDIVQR
UniProt P31749: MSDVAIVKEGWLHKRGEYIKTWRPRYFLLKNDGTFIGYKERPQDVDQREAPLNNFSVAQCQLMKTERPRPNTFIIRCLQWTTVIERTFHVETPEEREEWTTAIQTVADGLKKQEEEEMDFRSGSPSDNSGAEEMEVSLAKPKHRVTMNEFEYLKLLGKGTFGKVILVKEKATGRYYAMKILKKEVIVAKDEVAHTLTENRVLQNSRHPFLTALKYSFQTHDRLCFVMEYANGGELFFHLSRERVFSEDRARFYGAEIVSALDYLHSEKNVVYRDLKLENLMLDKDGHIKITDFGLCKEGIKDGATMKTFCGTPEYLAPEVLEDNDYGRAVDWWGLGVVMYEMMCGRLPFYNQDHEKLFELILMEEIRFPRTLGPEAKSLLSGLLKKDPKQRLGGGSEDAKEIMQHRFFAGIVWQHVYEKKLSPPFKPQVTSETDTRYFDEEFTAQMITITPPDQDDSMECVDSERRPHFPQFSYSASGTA

How the values were obtained:
Details in all cases: K562; 2-18 h
STK38 = STK38 (UniProt Q15208); experiment: kinase-Nluc reporter destabilization hit call (1 = scored as downregulated) (binary); higher = compound decreases kinase abundance
SYK = SYK (UniProt P43405); experiment: as above
TEC = TEC (UniProt P42680); experiment: as above
TYK2 = TYK2 (UniProt P29597); experiment: as above
ULK3 = ULK3 (UniProt Q6PHR2); experiment: as above
YES1 = YES1 (UniProt P07947); experiment: as above
ZAK = ZAK (UniProt Q9NYL2); experiment: as above
ZAP70 = ZAP70 (UniProt P43403); experiment: as above
ABL1 = ABL1 (UniProt P00519); experiment: number of time points (of 5) at which kinase-Nluc abundance scored as decreased, DMSO-normalised (count); higher = more persistent destabilization
AKT1 = AKT1 (UniProt P31749); experiment: as above

Structure (SMILES) | kinase-Nluc reporter destabilization hit call (STK38) | kinase-Nluc reporter destabilization hit call (SYK) | kinase-Nluc reporter destabilization hit call (TEC) | kinase-Nluc reporter destabilization hit call (TYK2) | kinase-Nluc reporter destabilization hit call (ULK3) | kinase-Nluc reporter destabilization hit call (YES1) | kinase-Nluc reporter destabilization hit call (ZAK) | kinase-Nluc reporter destabilization hit call (ZAP70) | number of time points (ABL1) | number of time points (AKT1)
CC(c1ccc(-c2cnc3c(-c4ccc(S(N)(=O)=O)c5ccccc45)cnn3c2)cc1)N1CCCC1 (stereo not given) (2.5 µM) | inactive: 0 | inactive: 0 | inactive: 0 | inactive: 0 | inactive: 0 | inactive: 0 | inactive: 0 | inactive: 0 | 0 | 0
Cc1cc2cc(Nc3ccnc(Nc4ccc5[nH]c(C)cc5c4)n3)ccc2[nH]1 (2.5 µM) | inactive: 0 | inactive: 0 | inactive: 0 | inactive: 0 | inactive: 0 | inactive: 0 | inactive: 0 | inactive: 0 | 2 | 0
COCCO[C@@H]1[C@H](O)[C@@H](CO)O[C@H]1n1cnc2c(=O)[nH]c(N)nc21 [2′-O-(2-Methoxyethyl)guanosine] (10 µM) | inactive: 0 | inactive: 0 | inactive: 0 | inactive: 0 | inactive: 0 | inactive: 0 | inactive: 0 | inactive: 0 | 0 | 0
CCN(CC)c1ccc2cc(C(=O)N3CCN(C(=O)C4=Cc5c(Br)cccc5S4(=O)=O)CC3)c(=O)oc2c1 (2 µM) | inactive: 0 | inactive: 0 | inactive: 0 | inactive: 0 | inactive: 0 | inactive: 0 | inactive: 0 | inactive: 0 | 0 | 0
Cc1cc(O)c(C(C)C)cc1N=O [Poloxime] (10 µM) | inactive: 0 | inactive: 0 | inactive: 0 | inactive: 0 | inactive: 0 | inactive: 0 | inactive: 0 | inactive: 0 | 0 | 0
O=c1oc2cc(O)ccc2c2ccccc12 [Urolithin B] (10 µM) | inactive: 0 | inactive: 0 | inactive: 0 | inactive: 0 | inactive: 0 | inactive: 0 | inactive: 0 | inactive: 0 | 0 | 0
C=CC(=O)Nc1cc2c(Nc3ccc(OCc4ccccn4)c(Cl)c3)ncnc2cc1OCCN1CCOCC1 (10 µM) | inactive: 0 | inactive: 0 | inactive: 0 | inactive: 0 | inactive: 0 | inactive: 0 | inactive: 0 | inactive: 0 | 0 | 0
Cn1cc(Nc2nccc(N3C[C@H]4CC[C@@H](C3)N4C(=O)[C@@H]3CC3(F)F)n2)cn1 (10 µM) | inactive: 0 | inactive: 0 | inactive: 0 | inactive: 0 | inactive: 0 | inactive: 0 | inactive: 0 | inactive: 0 | 0 | 0
Cc1cc([C@H](C)Nc2ccccc2)c2oc(N3CCOCC3)cc(=O)c2c1 (10 µM) | inactive: 0 | inactive: 0 | inactive: 0 | inactive: 0 | inactive: 0 | inactive: 0 | inactive: 0 | inactive: 0 | 0 | 0
N[C@H](Cc1c[nH]c2ccccc12)C(=O)N/N=C/c1ccc2nccnc2c1 [Rhosin (hydrochloride)] (10 µM) | inactive: 0 | inactive: 0 | inactive: 0 | inactive: 0 | inactive: 0 | inactive: 0 | inactive: 0 | inactive: 0 | 0 | 0
CCn1c(C(=O)N(C2CC2)C2CC2)cc2c3c(ncn3C)c(Nc3cc(C)n(C)n3)nc21 (10 µM) | inactive: 0 | inactive: 0 | inactive: 0 | inactive: 0 | inactive: 0 | inactive: 0 | inactive: 0 | inactive: 0 | 0 | 0
OCCNC1CCCc2c1[nH]c1ccc(-c3ccccc3)cc21 (stereo not given) (2.5 µM) | inactive: 0 | inactive: 0 | inactive: 0 | inactive: 0 | inactive: 0 | inactive: 0 | inactive: 0 | inactive: 0 | 0 | 0
C=C(C)C(=O)Nc1cccc(-c2ncnc3[nH]cc(C(=O)OCC)c23)c1 (10 µM) | inactive: 0 | inactive: 0 | inactive: 0 | inactive: 0 | inactive: 0 | inactive: 0 | inactive: 0 | inactive: 0 | 0 | 0
Cc1cc(Nc2nc(N[C@@H](C)c3ccc(F)cc3)c(C#N)cc2F)n[nH]1 (10 µM) | inactive: 0 | inactive: 0 | inactive: 0 | inactive: 0 | inactive: 0 | inactive: 0 | inactive: 0 | inactive: 0 | 0 | 0
COc1cc(N2CCN(C)CC2)ccc1Nc1ncc2c(n1)N(C1CCC1)C(=O)N(c1c(C)cccc1C)C2 (2.5 µM) | inactive: 0 | inactive: 0 | inactive: 0 | inactive: 0 | inactive: 0 | inactive: 0 | inactive: 0 | inactive: 0 | 0 | 0
COc1ccc(C(=O)Nc2sc3c(c2C(N)=O)CCCC3)cc1OC (10 µM) | inactive: 0 | inactive: 0 | inactive: 0 | inactive: 0 | inactive: 0 | inactive: 0 | inactive: 0 | inactive: 0 | 0 | 0
Fc1ccc(-c2nc(-c3c(F)cccc3F)[nH]c2-c2ccncc2)cc1 (10 µM) | inactive: 0 | inactive: 0 | inactive: 0 | inactive: 0 | inactive: 0 | inactive: 0 | inactive: 0 | inactive: 0 | 0 | 0
COc1cc2ncn(-c3cc(OCc4ccccc4S(C)(=O)=O)c(C#N)s3)c2cc1OC (10 µM) | inactive: 0 | inactive: 0 | inactive: 0 | inactive: 0 | inactive: 0 | inactive: 0 | inactive: 0 | inactive: 0 | 0 | 0
CN(C)CCN(Cc1ccc(Cl)cc1)c1ccccn1 [Chloropyramine hydrochloride] (10 µM) | active: 1 | inactive: 0 | inactive: 0 | inactive: 0 | inactive: 0 | inactive: 0 | inactive: 0 | inactive: 0 | 0 | 0
COc1ccc(C2CC(c3ccccc3)=NN2c2ccc(S(N)(=O)=O)cc2)cc1 (stereo not given) (10 µM) | inactive: 0 | inactive: 0 | inactive: 0 | inactive: 0 | inactive: 0 | inactive: 0 | inactive: 0 | inactive: 0 | 0 | 0
Cc1cc(Nc2cc(Cl)nc(Oc3ccc([N+](=O)[O-])cc3)n2)n[nH]1 [Autophinib] (2.5 µM) | inactive: 0 | inactive: 0 | inactive: 0 | inactive: 0 | inactive: 0 | inactive: 0 | inactive: 0 | inactive: 0 | 0 | 0
CN(CC(=O)N(Cc1ccc(C2CCCCC2)cc1)c1ccc(C(=O)O)cc1)S(=O)(=O)c1c(F)c(F)c(F)c(F)c1F (2.5 µM) | inactive: 0 | inactive: 0 | inactive: 0 | inactive: 0 | inactive: 0 | inactive: 0 | inactive: 0 | inactive: 0 | 0 | 0
C[C@@]1(O)CCC[C@H]1n1c(=O)c(C(F)F)cc2cnc(NC3CCN(S(C)(=O)=O)CC3)nc21 (2.5 µM) | inactive: 0 | inactive: 0 | inactive: 0 | inactive: 0 | inactive: 0 | inactive: 0 | inactive: 0 | inactive: 0 | 0 | 0
CC/C=C\C/C=C\C/C=C\CCCCCCCC(=O)O [α-Linolenic acid] (10 µM) | inactive: 0 | inactive: 0 | inactive: 0 | inactive: 0 | inactive: 0 | inactive: 0 | inactive: 0 | inactive: 0 | 0 | 0
OC(COc1ccc(C(F)(F)F)cc1)CN(Cc1ccccc1)Cc1ccccc1 (stereo not given) (2.5 µM) | inactive: 0 | inactive: 0 | inactive: 0 | inactive: 0 | inactive: 0 | inactive: 0 | inactive: 0 | inactive: 0 | 0 | 0
COc1ccc2[nH]cc(/C=C3\C(=O)Nc4ccc(NC(=O)CCN5CCCCC5)cc43)c2c1 (2.5 µM) | inactive: 0 | inactive: 0 | inactive: 0 | inactive: 0 | inactive: 0 | inactive: 0 | inactive: 0 | inactive: 0 | 0 | 0
O=C1NC(=O)/C(=C/c2ccc3c(c2)OC(F)(F)O3)S1 (10 µM) | inactive: 0 | inactive: 0 | inactive: 0 | inactive: 0 | inactive: 0 | inactive: 0 | inactive: 0 | inactive: 0 | 0 | 0
O=c1cc(O)cc(/C=C/c2ccc(O)c(O)c2)o1 [Hispidin] (10 µM) | inactive: 0 | inactive: 0 | inactive: 0 | inactive: 0 | inactive: 0 | inactive: 0 | inactive: 0 | inactive: 0 | 0 | 0
Cc1c(NC(=O)OC[C@@H]2COCCN2)cn2ncnc(Nc3ccc4c(cnn4Cc4cccc(F)c4)c3)c12 (10 µM) | inactive: 0 | inactive: 0 | inactive: 0 | inactive: 0 | inactive: 0 | inactive: 0 | inactive: 0 | inactive: 0 | 0 | 0

As a short view, some entries already given.
Structure (SMILES) | kinase-Nluc reporter destabilization hit call (STK38) | kinase-Nluc reporter destabilization hit call (SYK) | kinase-Nluc reporter destabilization hit call (TEC) | kinase-Nluc reporter destabilization hit call (TYK2) | kinase-Nluc reporter destabilization hit call (ULK3) | kinase-Nluc reporter destabilization hit call (YES1) | kinase-Nluc reporter destabilization hit call (ZAK) | kinase-Nluc reporter destabilization hit call (ZAP70) | number of time points (ABL1) | number of time points (AKT1)
COCCO[C@@H]1[C@H](O)[C@@H](CO)O[C@H]1n1cnc2c(=O)[nH]c(N)nc21 [2′-O-(2-Methoxyethyl)guanosine] (10 µM) | inactive: 0 | inactive: 0 | inactive: 0 | inactive: 0 | inactive: 0 | inactive: 0 | inactive: 0 | inactive: 0 | 0 | 0
CCN(CC)c1ccc2cc(C(=O)N3CCN(C(=O)C4=Cc5c(Br)cccc5S4(=O)=O)CC3)c(=O)oc2c1 (2 µM) | inactive: 0 | inactive: 0 | inactive: 0 | inactive: 0 | inactive: 0 | inactive: 0 | inactive: 0 | inactive: 0 | 0 | 0
